Results published in publication PMC5594043, “CYP79 P450 monooxygenases in gymnosperms: CYP79A118 is associated with the formation of taxiphyllin in Taxus baccata” (Plant Molecular Biology, 2017).

The chains behind the UniProt entries cited, without tags or fusion partners.
UniProt A0A288W866, entry or part of it: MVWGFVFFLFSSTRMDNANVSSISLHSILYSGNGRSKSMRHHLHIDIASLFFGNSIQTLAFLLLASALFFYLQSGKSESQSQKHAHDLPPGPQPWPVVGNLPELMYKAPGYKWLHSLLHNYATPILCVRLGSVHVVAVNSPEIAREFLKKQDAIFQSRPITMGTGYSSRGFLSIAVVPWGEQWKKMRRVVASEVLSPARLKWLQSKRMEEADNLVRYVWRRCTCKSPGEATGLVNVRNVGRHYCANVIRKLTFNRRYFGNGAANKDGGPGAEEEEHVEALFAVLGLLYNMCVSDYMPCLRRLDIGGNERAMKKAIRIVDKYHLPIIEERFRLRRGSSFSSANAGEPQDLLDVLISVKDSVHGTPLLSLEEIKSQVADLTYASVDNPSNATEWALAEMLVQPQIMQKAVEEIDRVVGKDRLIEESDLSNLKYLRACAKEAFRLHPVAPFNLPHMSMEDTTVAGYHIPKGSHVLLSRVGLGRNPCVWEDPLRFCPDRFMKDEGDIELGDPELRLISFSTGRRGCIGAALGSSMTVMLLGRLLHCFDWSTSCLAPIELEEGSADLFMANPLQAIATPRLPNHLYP

Molecular target: T1, CYP79A118 full-length (CYP79A118-M1) (Taxus baccata, UniProt A0A288W866)
T1 construct: full-length ORF; yeast WAT11 microsomes with Arabidopsis CPR1; pESC-Leu2d
Assay type: biochemical
Conditions: 1 mM substrate; NADPH 1 mM; Arabidopsis CPR1 in microsomes; 75 mM sodium phosphate pH 7.0; 25 °C; product p-hydroxyphenylacetaldoxime

N[C@@H](Cc1ccc(O)cc1)C(=O)O [Tyr, L-tyrosine]
LC-MS/MS of aldoxime product, yeast microsomes: the full-length protein as well as the truncated version showed enzymatic activity with the aromatic
